According to PubChem BioAssay AID488840 (Broad Institute, 2010):
The whole screen tested about 1,400 compounds, of which about 45 (3%) were called active.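 The calls were made as follows: active = half-maximal dose of signal decrease from fit no higher than ten times the top valid tested dose; inconclusive = fit invalid, or curve flat with 30 to 70% inhibition; inactive = the rest.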 The list shows a part of the results. Measured potencies and affinities stand elsewhere.

Protein sequences, listed by entry. Tags and fused reporters are not part of them. Lines headed by an entry give the natural chain unless they say otherwise; changes in a name come on top.
UniProt O75164: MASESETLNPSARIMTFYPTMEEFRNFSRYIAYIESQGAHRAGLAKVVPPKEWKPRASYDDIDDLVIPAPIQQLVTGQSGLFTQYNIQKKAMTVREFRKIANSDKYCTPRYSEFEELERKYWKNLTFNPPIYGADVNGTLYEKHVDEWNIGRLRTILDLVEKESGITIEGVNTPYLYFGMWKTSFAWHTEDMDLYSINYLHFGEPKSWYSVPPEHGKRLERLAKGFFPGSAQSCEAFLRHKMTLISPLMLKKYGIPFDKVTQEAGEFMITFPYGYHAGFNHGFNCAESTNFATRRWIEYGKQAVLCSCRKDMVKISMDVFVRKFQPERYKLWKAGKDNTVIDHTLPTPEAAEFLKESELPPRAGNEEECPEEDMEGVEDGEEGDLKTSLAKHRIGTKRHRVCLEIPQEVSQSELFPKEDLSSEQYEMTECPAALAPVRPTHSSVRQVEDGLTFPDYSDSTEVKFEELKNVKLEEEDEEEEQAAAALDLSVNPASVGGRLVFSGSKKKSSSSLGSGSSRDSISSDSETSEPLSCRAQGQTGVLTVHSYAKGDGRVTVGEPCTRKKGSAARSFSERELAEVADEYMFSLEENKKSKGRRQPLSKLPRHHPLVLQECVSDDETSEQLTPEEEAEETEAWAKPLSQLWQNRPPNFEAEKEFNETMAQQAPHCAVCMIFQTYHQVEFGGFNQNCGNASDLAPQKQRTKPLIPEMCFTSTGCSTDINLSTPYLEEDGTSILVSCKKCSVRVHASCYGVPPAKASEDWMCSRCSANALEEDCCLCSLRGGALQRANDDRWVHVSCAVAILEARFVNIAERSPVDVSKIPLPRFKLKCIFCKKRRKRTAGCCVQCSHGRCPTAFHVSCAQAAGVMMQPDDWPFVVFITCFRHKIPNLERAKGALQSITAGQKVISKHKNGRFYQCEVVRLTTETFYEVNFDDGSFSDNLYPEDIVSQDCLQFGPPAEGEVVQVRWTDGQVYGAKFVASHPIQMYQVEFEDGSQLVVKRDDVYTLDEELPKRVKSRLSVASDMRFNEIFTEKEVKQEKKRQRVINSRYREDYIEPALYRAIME

biological target: Lysine-specific demethylase 4A (Homo sapiens) (UniProt O75164); experiment: inhibition of JMJD2A H3K9me3 demethylation – biochemical, DELFIA europium, cherry-picked samples, selectivity assay for GASC-1 inhibitor project, dose response (AID 488840); conditions: GST-JMJD2A(1-420) H3K9me3 demethylation; at 6 µM (top of the series) unless noted;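 also: europium signal reports the dimethyl H3K9 product detected by antibody so inhibitors lower it; 0% = median of neutral control wells and -100% = median of positive control wells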

Activity change, negative = inhibition, inactive:
Cc1ccc(S(=O)(=O)NCCC(=O)OCC(=O)Nc2ccccc2Cl)cc1 4.42%
COc1ccc(-n2c(C)cc(/C=N/Nc3nnc(C)n3N)c2C)cc1 -11.9%
OCC1=C[C@@H](O)[C@@H]2C=CO[C@@H](O[C@@H]3O[C@H](CO)[C@@H](O)[C@H](O)[C@H]3O)[C@H]12 2.96%
Nc1nnc(SC2CC(=O)N(c3ccccc3)C2=O)s1 (stereo not given) 7.79%
Cc1noc(C)c1NC(=O)N(C)C[C@H]1Oc2ccc(NC(=O)CCC(F)(F)F)cc2C(=O)N([C@H](C)CO)C[C@@H]1C 10.1%
C[C@H](CO)N1C[C@H](C)[C@@H](CN(C)Cc2ccc(Cl)c(Cl)c2)Oc2c(NS(=O)(=O)c3cccs3)cccc2C1=O 0.912%
COc1ccc(CCNC(=O)c2ccc(N3CCCCS3(=O)=O)cc2)cc1OC -0.105%
CC(NC(=O)NNC(N)=S)(C(F)(F)F)C(F)(F)F 1.73%
CCCNC(=S)Nc1ccc(Nc2ccccc2)cc1 -3.28%
CCOCCc1nnc(NC(=O)c2ccc(OC)c(OC)c2)s1 -0.873%
COc1cc(C)c(/C=C(\C#N)C(=O)Nc2ccc(C)cc2)cc1C(C)C 6.47%
COc1ccc(S(=O)(=O)NCCCCC(=O)O)cc1C(=O)O -6.28%
O=C(Cc1cccc2ccccc12)N1CCCc2ccccc21 4.99%
Cc1cc(-n2c(SCC(=O)NCc3cccs3)nc3n[nH]c(C)c3c2=N)ccc1Cl 1.76%
COC(=O)c1cc(S(=O)(=O)NCCCN2CCCC2=O)cn1C 2.09%
CCCC(=O)Nc1nn(C)c2nc3c(C)cccc3cc12 1.33%
COc1ccccc1-n1cnnc1SCC(=O)Nc1ncc(Cl)cc1Cl 4.36%
CC(C)(C)OC(=O)N[C@@H](Cc1ccccc1)C(=O)N[C@@H](CO)[C@H](O)[C@@H]1C[C@@H]1C(=O)NC1CCCCC1 -0.462%
FC(F)(F)c1ccccc1NC(=S)NN=C1CCCCCC1 7.26%
C[C@@H]1CN([C@H](C)CO)C(=O)c2cc(NC(=O)Nc3ccc(C(F)(F)F)cc3)ccc2O[C@H]1CN(C)S(=O)(=O)c1ccccc1 3.91%
COc1ccc(N2CCN(C(=O)Cn3nnc(-c4ccc(N(C)C)cc4)n3)CC2)cc1 -1.55%
O=C(NCCCN1CCOCC1)c1cccc(S(=O)(=O)N2CCc3ccccc3C2)c1 0.16%
CCCCNC(=O)CC1N=C2c3ccccc3N=C(SCC(=O)Nc3cccc(C)c3)N2C1=O (stereo not given) 1.99%
O=C(COC(=O)c1ccc(O)cc1)Nc1ccc(Cl)cc1 -3.11%
C[C@@H]1CN([C@H](C)CO)C(=O)c2cccc(NS(=O)(=O)c3ccccc3)c2O[C@H]1CN(C)C 5%
O=C(Nc1ccc(-c2nc3ncccc3o2)cc1)c1ccc(Br)o1 -1.12%
O=C(NCC1CCCO1)c1ccc2c(=O)n(Cc3cccc(Br)c3)c(=S)[nH]c2c1 (stereo not given) -0.668%
O=C(Cn1cncn1)NCc1cc(F)ccc1F 0.641%
CN(C)S(=O)(=O)c1cccc(NC(=S)NCc2ccc3c(c2)OCO3)c1 -0.0369%
COC(=O)c1cc(NC(=O)CSc2nncn2C)cc(C(=O)OC)c1 0.678%
O=C1CCN(Cc2ccc(O)cc2)CCN1[C@H](CO)Cc1ccccc1 5%
Cc1nc2cc(CO)ccc2n1C 3.76%
O=C(c1cccc(C(F)(F)F)c1)N1CCCC1 0.0679%
O=C(Nc1c(Cl)cccc1Cl)c1cc(-c2ccco2)on1 6.7%
Cc1cc(NS(=O)(=O)c2ccc(Nc3nc(-c4sc(N)nc4C)cs3)cc2)no1 1.78%
CC(C)NC(=O)N(C)C[C@H]1Oc2ccc(NS(=O)(=O)c3ccccc3)cc2C(=O)N([C@H](C)CO)C[C@H]1C -4.62%
O=c1c2ccccc2c(C=NCCCN2CCOCC2)c(O)n1Cc1ccccc1 2.21%
C[C@H](CO)N1C[C@H](C)[C@@H](CN(C)S(=O)(=O)c2cccs2)Oc2c(NC(=O)CCC(F)(F)F)cccc2C1=O 4.37%
O=C(CCN1C(=O)/C(=C/c2ccc(F)cc2)SC1=S)N[C@@H](CO)Cc1ccccc1 3.78%
Cn1nnnc1SCC(=O)NCC(=O)c1ccccc1 2.53%
CCN1c2ccccc2-c2nc3ccccc3n2C1c1ccccn1 (stereo not given) 4.5%
O=C(NCc1ccccc1Br)c1cccc2c1C(=O)c1ccc(N3CCC(Cc4ccccc4)CC3)cc1S2(=O)=O 13.4%
OC[C@H]1O[C@@H]2O[C@H]3[C@H](O)[C@@H](O)[C@@H](O[C@H]4[C@H](O)[C@@H](O)[C@@H](O[C@H]5[C@H](O)[C@@H](O)[C@@H](O[C@H]6[C@H](O)[C@@H](O)[C@@H](O[C@H]7[C@H](O)[C@@H](O)[C@@H](O[C@H]1[C@H](O)[C@H]2O)O[C@@H]7CO)O[C@@H]6CO)O[C@@H]5CO)O[C@@H]4CO)O[C@@H]3CO -0.776%
Cc1noc(C)c1COc1ccc(C(=O)OC(C)C(=O)Nc2ccc(N3CCOCC3)cc2)cc1 (stereo not given) -3.76%
Cc1cccc(NC(=O)C2CCCN(S(=O)(=O)c3c(C)nn(C)c3C)C2)n1 (stereo not given) -2.26%
FC(F)(F)c1cccc(NCc2cn3cccnc3n2)c1 -1.08%
Cc1ccc(NC(=O)c2cccc3c2C(=O)N(C2CCCCC2)C3)c(C)c1 -3.71%
C[C@H](CO)N1C[C@H](C)[C@H](CN(C)Cc2ccc(Oc3ccccc3)cc2)Oc2ccc(NC(=O)Nc3cccc4ccccc34)cc2CC1=O 2.16%
CCOC(=O)C1=C(C)NC2=C(C(=O)CCC2)C1c1coc2ccccc2c1=O (stereo not given) -2.43%
COc1ccc(NC(=O)N(C)C[C@@H]2Oc3c(NC(=O)Nc4c(C)noc4C)cccc3C(=O)N([C@@H](C)CO)C[C@@H]2C)cc1 1.31%

Four entries drawn at random from the list so far:
Activity change, negative = inhibition, inactive:
CC(C)(C)OC(=O)N[C@@H](Cc1ccccc1)C(=O)N[C@@H](CO)[C@H](O)[C@@H]1C[C@@H]1C(=O)NC1CCCCC1 -0.462%
CCN1c2ccccc2-c2nc3ccccc3n2C1c1ccccn1 (stereo not given) 4.5%
Cn1nnnc1SCC(=O)NCC(=O)c1ccccc1 2.53%
COc1ccccc1-n1cnnc1SCC(=O)Nc1ncc(Cl)cc1Cl 4.36%
